Test results from paper PMC9332313, “Folding and Binding Mechanisms of the SH2 Domain from Crkl” (Biomolecules, 2022).
No constants are given. Whether binding was seen depends on the method and setting. Some results given as binding are weak or reduced against the parent protein; the word gives no strength.

Sequences of proteins named here, by UniProt entry; tags and fusion partners are left off. Residues count along the entry.
UniProt P46109, residues 1-111: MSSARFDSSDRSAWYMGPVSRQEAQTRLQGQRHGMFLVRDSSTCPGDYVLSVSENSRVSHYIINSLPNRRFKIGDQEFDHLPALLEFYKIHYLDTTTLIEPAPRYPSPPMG

Target: T1, dansylated Pax_(112–123) peptide (Dans-GEEEHV-pY-SFPNK)
T1 sequence (peptide, phosphotyrosine (pY, seventh residue of the peptide); dansyl on the N-terminus): GEEEHVYSFPNK
Experiment: stopped-flow fluorescence kinetics (FRET); ionic strength dependence: dansyl-Pax112-123 constant at 2 μM mixed with Crkl-SH2 2 to 10 μM; koff by displacement of the preincubated 2 µM complex with non-dansylated Pax112-123 (30 μM); 283 K; 50 mM sodium-HEPES pH 7.5 with 150 mM, 300 mM, 500 mM or 1 M NaCl; both purified

- binding: binds
Substance: SH2 domain of Crkl protein (residues 1-111), wild type (from UniProt P46109 1-111) (domain or fragment)
